## Library screening results

From ChEMBL document CHEMBL3988442, “University of Dundee, Small-Polar-MMV Screening Library” (2021).

Mtb heat-shock: 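Assay on Mycobacterium tuberculosis, filed only as a heat shock assay from Cornell; the read-out is not stated. The concentration is filed as 10 mM, unlikely as a test dose, so the dose is not known. Direction is inferred from retests: higher values go with stronger inhibition. Of about 69,000 compounds tested this way, about 930 (1.4%) reached 50% or more in at least one test.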
Mtb growth Cornell: 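Whole-cell assay for inhibitors of Mycobacterium tuberculosis growth, labelled Cornell in the record; the read-out is not stated. The concentration is filed as 10 mM, unlikely as a test dose, so the dose is not known. The record gives no direction; compounds strong in two other growth screens of this library score well above the rest, so higher reads as stronger inhibition. Of about 53,000 compounds tested this way, about 900 (1.7%) reached 50% or more in at least one test.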

Values are the deposited “Percent Effect”, in %. How 0% and 100% were set is not recorded. Most values in the screen are low, and negative values occur. The compounds are a random part of those screened. A dash means the value is not listed here; it may have been measured.

| compound | Mtb heat-shock | Mtb growth Cornell |
|---|---|---|
| `CCc1nc(CN(C)C2CCN(Cc3nnc(C4CCC4)o3)C2)no1` (stereo not given) | -4.813 | - |
| `Cn1cc(CNC2CCCOc3c2ccc2ccccc32)cn1` (stereo not given) | 11.28 | 52.41 |
| `CC(C)N1CC(C(=O)NCc2ccc(S(=O)(=O)N(C)C)cc2)CC1=O` (stereo not given) | 0.9834 | 28.3 |
| `COc1ccccc1CC1CCCN1C(=O)c1cn[nH]c1C` (stereo not given) | -9.354 | - |
| `F[C@@H]1CN(Cc2nccs2)C[C@@H]1OCc1nc2cnccc2[nH]1` | -18.39 | -2.804 |
| `Cc1nn(C(C)C)c2cn(CC(=O)NC3CCSCC3)nc12` | -11.08 | -17.35 |
| `Cc1cnn(CCNCc2csc(-c3ccco3)n2)c1` | 52.61 | - |
| `Cc1cc(N2CCCC3(CN(C)C(=O)O3)C2)c2cc3c(cc2n1)OCO3` (stereo not given) | -13.81 | -24.06 |
| `COc1ccc(CN2CC(n3cccn3)C2)cc1F` | -18.77 | 3.509 |
| `OC1(CN2CCC(Cc3ncccn3)CC2)CCOCC1` | -2.438 | -20.94 |
| `COc1cc(CC2CC(c3ccc4c(c3)OCO4)=NO2)cc2c1OCO2` (stereo not given) | 9.834 | 30.67 |
| `O=C(c1ccncc1)N(CCO)Cc1cc(Br)ccc1F` | 5.608 | 19.8 |
| `O=C(O)c1cc(-n2cc3c(n2)CCC3)cc(S(=O)(=O)NC2CCCC2)c1` | 9.728 | 24.1 |
| `N#Cc1nccnc1NC1CCN(c2c(F)cccc2F)C1` (stereo not given) | -2.94 | 10.83 |
| `O=C(O)C(F)(F)F.O=C(O)C(F)(F)F.c1cncc(-c2ccc3c(c2)CCC32CCN(Cc3ccco3)CC2)c1` | 104 | 82.31 |
| `CS(=O)(=O)NCc1cnc2n1CCN(Cc1cccnc1)CC2.O=C(O)C(F)(F)F.O=C(O)C(F)(F)F` | -24.02 | -4.367 |
| `O=C(C1CCCC1)N1CCn2c(nnc2C2CCCNC2)C1` (stereo not given) | -0.8478 | - |
| `CC(NC(N)=O)C(=O)N1CCCN(Cc2nccn2C(C)C)CC1` (stereo not given) | 15.46 | - |
| `c1cc(-c2nc(CN3CCc4c(ncn4C4CC4)C3)cs2)cs1` | 24.33 | - |
| `Cc1oc(CNC(=O)Cc2ccccc2Cl)cc1C(=O)O` | -0.02355 | -2.771 |
| `Cc1nc(C(=O)N2CCCC(c3nc(C(C)C)cs3)C2)c[nH]1` (stereo not given) | -14.91 | 0.264 |
| `Cc1nn(CCO)c(C)c1CNC1CCCCc2ccccc21` (stereo not given) | 1.044 | 11.7 |
| `O=C(C1CCOC1)N1CC2(CCN(c3ccccc3)C2)C1` (stereo not given) | 32.32 | 5.272 |
| `CCOCCNC1(c2ccc(Cl)cc2)CCOCC1` | 12.33 | -7.005 |
| `O=C(c1ccc2[nH]nnc2c1)N1CC[C@H](O)[C@]2(CCCO2)C1` | 10.47 | 18.15 |
| `O=C(O)C(F)(F)F.[H][C@@]12CN(C)C[C@]1(C(=O)NC)CCCN2c1ncccn1` | -20.84 | -7.772 |
| `Cc1ccn(-c2ccccc2NCc2scnc2C)n1` | -23.63 | 37.24 |
| `COc1c(C2CCCN2C(=O)c2cc(Cl)c[nH]2)c(C)nn1C` (stereo not given) | 3.703 | 15.1 |
| `CCCc1n[nH]c(C2CN(C(=O)CCn3ccccc3=O)CCO2)n1` (stereo not given) | -1.32 | -43.43 |
| `Cc1c(CNCC(C)Oc2cccnc2)c2ccccc2n1CC(N)=O` (stereo not given) | -4.586 | -4.44 |
| `Cn1cc(CN2CCCC23CCN(C(=O)c2ccccn2)CC3)cn1.O=C(O)C(F)(F)F` | -28.64 | -17.45 |
| `O=C(Cc1ccc(F)cc1)N1CCn2cc(Cn3cncn3)nc2C1` | 1.905 | -12.06 |
| `O=C(Cc1ccccc1F)N1CCN(C(=O)c2cccc(F)c2)CC1` | -21.57 | -27.42 |
| `[H][C@@]12CS(=O)(=O)C[C@]1([H])N(S(=O)(=O)c1cccs1)CCN2C(=O)COC` | 4.143 | 5.268 |
| `Cc1cccc(CN(C(=O)CS(C)(=O)=O)C(C)C)c1` | -11.58 | - |
| `Cc1nn(C)c(N2CCOCC2)c1CNCc1ccc(C(C)O)cc1` (stereo not given) | -2.342 | - |
| `CC(C)C(=O)N1CCN(CCOc2cccc(C#N)c2)CC1` | -15.66 | - |
| `CCCN1CCN(C(=O)c2scnc2C)CC1` | -3.102 | -9.007 |
| `CCc1n[nH]c(C2CN(C(=O)c3cnc(C)s3)CCO2)n1` (stereo not given) | 4.818 | -0.4494 |
| `COc1ccccc1CN(Cc1nc(CC(C)C)no1)C1CC1` | -13.93 | -0.01928 |
| `CC(C)N1CCC2(CC1)CC(NS(C)(=O)=O)c1ccccc1O2.O=C(O)C(F)(F)F` (stereo not given) | -18.22 | - |
| `CC(C)COc1cccc(-c2nc3c([nH]2)CCNC3)c1` | -6.068 | - |

The last 4 entries again:

- CCc1n[nH]c(C2CN(C(=O)c3cnc(C)s3)CCO2)n1 (stereo not given) : Mtb heat-shock: 4.818%; Mtb growth Cornell: -0.4494%
- COc1ccccc1CN(Cc1nc(CC(C)C)no1)C1CC1 : Mtb heat-shock: -13.93%; Mtb growth Cornell: -0.01928%
- CC(C)N1CCC2(CC1)CC(NS(C)(=O)=O)c1ccccc1O2.O=C(O)C(F)(F)F (stereo not given) : Mtb heat-shock: -18.22%
- CC(C)COc1cccc(-c2nc3c([nH]2)CCNC3)c1 : Mtb heat-shock: -6.068%